Results: patent publication US20260079169A1, “VOLATILE ORGANIC COMPOUNDS AS MARKERS FOR CELLULAR COMMUNICATION” (Technion Research and Development Foundation Limited, priority 2020, published 2026)

Legend:
[1] = test system: A549, H1299, H1975 human lung cancer lines and BEAS-2B normal cell line, each cultured alone; test: VOCs headspace analysis (ITEX GC-MS) of mono-culture groups (Format-1), bulk cell samples 1×10^4 cells; format: cell-based; design: key to Category (VOC increased or decreased relative to the control): ↑: Increased; ↓: decreased; ↑*: <0.01; ↑**: <0.001; conditions: for VOC level in headspace, area under curve (AUC) normalized by STD AUC / VOC area under curve (AUC) normalized by STD AUC, A / VOC area under curve (AUC) normalized by STD AUC, B / VOC area under curve (AUC) normalized by STD AUC, C / VOC area under curve (AUC) normalized by STD AUC, D: bulk 1 × 10^4 cell; for VOC area under curve (AUC) normalized by STD AUC, A: A: BEAS-2B mono-culture headspace; for VOC area under curve (AUC) normalized by STD AUC, B: B: A549 mono-culture headspace; for VOC area under curve (AUC) normalized by STD AUC, C: C: H1299 mono-culture headspace; for VOC area under curve (AUC) normalized by STD AUC, D: D: H1975 mono-culture headspace; for Category (VOC increased or decreased relative to the control): mono-culture groups (Format-1), 48 h incubation, averaged peak area (n = 3)
[2] = test system: different-cell pairs of BEAS-2B, A549, H1299, H1975 without physical contact under a mutual headspace; test: VOCs headspace analysis (ITEX GC-MS) of different-cell pair co-culture headspace groups (Format-3), bulk cell samples; format: cell-based, human; design: key to Category (VOC increased or decreased relative to the control): ↑: Increased; ↓: decreased; ↑*: <0.01; ↑**: <0.001; conditions: for VOC level in headspace, area under curve (AUC) normalized by STD AUC / VOC area under curve (AUC) normalized by STD AUC, B + C / VOC area under curve (AUC) normalized by STD AUC, B + D / VOC area under curve (AUC) normalized by STD AUC, A + B / VOC area under curve (AUC) normalized by STD AUC, A + C / VOC area under curve (AUC) normalized by STD AUC, A + D / VOC area under curve (AUC) normalized by STD AUC, C + D: bulk 1 × 10^4 cell; for VOC area under curve (AUC) normalized by STD AUC, B + C: A549 + H1299; for VOC area under curve (AUC) normalized by STD AUC, B + D: A549 + H1975; for VOC area under curve (AUC) normalized by STD AUC, A + B: BEAS-2B + A549; for VOC area under curve (AUC) normalized by STD AUC, A + C: BEAS-2B + H1299; for VOC area under curve (AUC) normalized by STD AUC, A + D: BEAS-2B + H1975; for VOC area under curve (AUC) normalized by STD AUC, C + D: H1299 + H1975; for Category (VOC increased or decreased relative to the control): different-cell pair co-culture headspace (Format-3), 72 h, averaged peak area (n = 3)

SMILES | VOC level in headspace, area under curve (AUC) normalized by STD AUC ([1]; A (BEAS-2B) mono-culture) | VOC level in headspace, area under curve (AUC) normalized by STD AUC ([1]; B (A549) mono-culture) | VOC level in headspace, area under curve (AUC) normalized by STD AUC ([1]; C (H1299) mono-culture) | VOC level in headspace, area under curve (AUC) normalized by STD AUC ([1]; D (H1975) mono-culture) | VOC level in headspace, area under curve (AUC) normalized by STD AUC ([2]; A + B (BEAS-2B + A549)) | VOC level in headspace, area under curve (AUC) normalized by STD AUC ([2]; A + C (BEAS-2B + H1299)) | VOC level in headspace, area under curve (AUC) normalized by STD AUC ([2]; A + D (BEAS-2B + H1975)) | VOC level in headspace, area under curve (AUC) normalized by STD AUC ([2]; B + C (A549 + H1299)) | VOC level in headspace, area under curve (AUC) normalized by STD AUC ([2]; B + D (A549 + H1975)) | VOC level in headspace, area under curve (AUC) normalized by STD AUC ([2]; C + D (H1299 + H1975)) | other results
C#CF [VOC57] | 0 | 0 | 0 | 7.581 | 0 | 0 | 4.011 | 0 | 0 | 1.85 | –
CC=C(C)CCCC [VOC22] | 0 | 0 | 0 | 0 | 8.188 | 0 | 0 | 2.834 | 0 | 0 | –
C=C(C)CC(C)CCC (stereo not shown) [VOC23] | 0 | 1.771 | 0 | 5.249 | 4.214 | 1.824 | 3.715 | 0 | 0 | 0 | –
CCC(C)CCCC(C)CCCC(C)C (stereo not shown) [VOC71] | 0 | 0 | 0 | 5.484 | 0 | 0 | 5.065 | 0 | 3.383 | 1.027 | –
N#C/C=C/C#N [VOC36] | 0 | 0 | 7.1158 | 10.52 | 0 | 0 | 0 | 0 | 0 | 4.126 | –
CCCC(C)(C)CC [VOC49] | 4.827 | 2.117 | 0 | 0 | 10.4895 | 2.131 | 3.063 | 1.761 | 2.403 | 0 | –
CC(=O)c1ccc2c(C)cc(C)cc(C)c1-2 [VOC104] | – | – | – | – | – | – | – | – | – | – | VOC area under curve (AUC) normalized by STD AUC, A [1]: 0; VOC area under curve (AUC) normalized by STD AUC, B [1]: 4.735; VOC area under curve (AUC) normalized by STD AUC, C [1]: 6.4451; VOC area under curve (AUC) normalized by STD AUC, D [1]: 0; VOC area under curve (AUC) normalized by STD AUC, B + C [2]: 5.011; VOC area under curve (AUC) normalized by STD AUC, B + D [2]: 0; VOC area under curve (AUC) normalized by STD AUC, A + B [2]: 1.887; VOC area under curve (AUC) normalized by STD AUC, A + C [2]: 2.721; VOC area under curve (AUC) normalized by STD AUC, A + D [2]: 0; VOC area under curve (AUC) normalized by STD AUC, C + D [2]: 0
C/C=C/C(C)CCC (stereo not shown) [VOC51] | 0 | 4.305 | 6.2735 | 7.715 | 1.824 | 3.342 | 0 | 0 | 0 | 0 | –
CCCCO [VOC98] | – | – | – | – | – | – | – | – | – | – | VOC area under curve (AUC) normalized by STD AUC, A [1]: 0; VOC area under curve (AUC) normalized by STD AUC, B [1]: 0; VOC area under curve (AUC) normalized by STD AUC, C [1]: 0; VOC area under curve (AUC) normalized by STD AUC, D [1]: 6.103; VOC area under curve (AUC) normalized by STD AUC, B + C [2]: 0; VOC area under curve (AUC) normalized by STD AUC, B + D [2]: 5.359; VOC area under curve (AUC) normalized by STD AUC, A + B [2]: 0; VOC area under curve (AUC) normalized by STD AUC, A + C [2]: 0; VOC area under curve (AUC) normalized by STD AUC, A + D [2]: 4.894; VOC area under curve (AUC) normalized by STD AUC, C + D [2]: 5.866
CCC(C)=O [VOC94] | 3.925 | 8.126 | 0 | 0 | 8.48 | 2.85 | 1.913 | 2.528 | 2.08 | 0 | –
CCCCCCCCCCCCCCC(C)C [VOC64] | 0 | 0 | 6.3364 | 7.301 | 0 | 2.915 | 0 | 1.031 | 0 | 9.273 | –
C/C=C/C(C)C [trans-4-Methyl-2-pentene] | – | – | – | – | – | – | – | – | – | – | Category (VOC increased or decreased relative to the control) [1]: ↑; Category (VOC increased or decreased relative to the control) [2]: ↑* (↑*: <0.01)
CCCCCCCCCCCCCCC [VOC9] | 3.863 | 0 | 0 | 0 | 9.676 | 7.602 | 6.928 | 0 | 0 | 0 | –
CC1(C)CCO1 [2,2-Dimethyloxetane] | – | – | – | – | – | – | – | – | – | – | Category (VOC increased or decreased relative to the control) [1]: ↑* (↑*: <0.01); Category (VOC increased or decreased relative to the control) [2]: ↑

The amount applied is not stated for every result.
